Reference: PubChem BioAssay AID504444 (National Center for Advancing Translational Sciences (NCATS), 2011)
About 7,500 (2.1%) of roughly 360,000 compounds were called active. Inconclusive means that the source gave no clear call. Such entries were picked first, then a sample of the others. Calls follow the shape of the dose curve; as a rule, active = well fitted inhibition curve with a large enough effect; inconclusive = small, poorly fitted or top-dose-only effect, or effect the other way; inactive = flat fitted curve, though single readings scatter. Where the call is inconclusive, the potency comes from a doubtful curve fit.

Experiment: Nrf2 qHTS screen for inhibitors; also: nearly all actives have a fitted effect of over 60% in size
Details: A549 ARE-Fluc reporter, luciferase luminescence, 18-24 h; series mostly up to 46 µM
In short: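 Concentration-response testing used A549 ARE_Fluc cells at 5000 cells/well. Following an 18-24 h compound incubation, viability was read by fluorescence (Ex 405/Em 525) and luciferase output by luminescence.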
Potency is read from the fitted curve at half-maximal effect.

| SMILES | Potency |
| --- | --- |
| Cc1cccc(C(=O)NCc2nnc(SCc3ccc(F)cc3)n2C)c1 | inconclusive: 25.9 µM [falling, single point] |
| COc1cc(CC(=O)Nc2ccccc2N2CCCCC2)cc(OC)c1OC | inconclusive: 20.6 µM [falling, single point] |
| CCC(=O)Nc1nc(-c2ccc3c(c2)OCCO3)cs1 | inconclusive: 0.731 µM [activator, partial curve, poor fit] |
| Cn1c(=O)c2c(nc(SCC(=O)Nc3ccccc3N3CCCCC3)n2C)n(C)c1=O | inconclusive: 32.6 µM [falling, single point] |
| COc1ccc(C)cc1NC(=O)C1CCN(C(=O)c2ccc(C(C)(C)C)cc2)CC1 | inconclusive: 20.6 µM [activator, single point] |
| CCOC(=O)[C@@H]1[C@H]2COc3cc(OC)ccc3[C@@H]2N2C(=O)N(c3ccc(Cl)cc3)C(=O)[C@@]12C | inactive |
| CC(C)(C)NC(=O)NC(=O)CN1CCN(c2cccc(Cl)c2)CC1 | inconclusive: 6.51 µM [falling, partial curve, poor fit] |
| CCCCn1nc(C(=O)Nc2ccc3c(c2)OCO3)c2ccccc2c1=O | inconclusive: 20.6 µM [falling, single point] |
| CC1CN(S(=O)(=O)c2cc(C(=O)NCCCN3CCCC3=O)ccc2Cl)CC(C)O1 (stereo not given) | inconclusive: 29.1 µM [falling, single point] |
| Cc1ccc(C(=O)c2oc3ccccc3c2NC(=O)c2cc(-c3ccccc3)on2)cc1F | inactive |
| CN(C(=O)c1ccc(NC(=O)Cc2cccc(NC(=O)C3CCCN(C(=O)CCc4ccccc4)C3)c2)cc1)C1CC1 (stereo not given) | inconclusive: 18.4 µM [falling, single point] |
| O=C(c1ccc(S(=O)(=O)NCc2ccco2)cc1)N1CCN(Cc2ccc3c(c2)OCO3)CC1 | inconclusive: 20.6 µM [falling, single point] |
| Cc1cc(S(=O)(=O)N2CCOCC2)ccc1OCC(=O)N1CCC(C(N)=O)CC1 | inconclusive: 32.6 µM [falling, single point] |
| CCCOc1cccc(-c2cc(C(=O)NNC(=S)NCC)c3ccccc3n2)c1 | inconclusive: 5.17 µM [falling, single point] |
| Cc1ccc(/C=N/NC(=O)Cn2nnc(N)n2)cc1 | inactive |
| Cc1[nH]c2ccccc2c1/C=N/Nc1nncn1N | inconclusive: 7.31 µM [activator, partial curve] |
| COC(=O)c1scc(S(=O)(=O)C(C)C)c1N/N=C(\C#N)C(=O)c1ccc(Cl)cc1 | inconclusive: 20.6 µM [falling, single point] |
| CCOC(=O)N1CCN(C(=O)c2oc3ccc(S(=O)(=O)N4CCCCCC4)cc3c2C)CC1 | inconclusive: 13 µM [falling, partial curve, poor fit] |
| Cc1ccc(CN(CC2CCCO2)C(=O)CN2C(=O)C(C(C)C)Oc3ccccc32)o1 (stereo not given) | inconclusive: 29.1 µM [falling, single point] |
| COc1ccc(-c2noc(-c3ccc(NC4CCCC4)c([N+](=O)[O-])c3)n2)cc1 | inconclusive: 32.6 µM [activator, single point] |

In the list so far, 2 have fluorine:

| SMILES | Potency |
| --- | --- |
| Cc1cccc(C(=O)NCc2nnc(SCc3ccc(F)cc3)n2C)c1 | inconclusive: 25.9 µM [falling, single point] |
| Cc1ccc(C(=O)c2oc3ccccc3c2NC(=O)c2cc(-c3ccccc3)on2)cc1F | inactive |

Look-ups from the entries so far:
Potency, COc1ccc(-c2noc(-c3ccc(NC4CCCC4)c([N+](=O)[O-])c3)n2)cc1 reads inconclusive: 32.6 µM [activator, single point]
Potency, Cc1ccc(CN(CC2CCCO2)C(=O)CN2C(=O)C(C(C)C)Oc3ccccc32)o1 (stereo not given) reads inconclusive: 29.1 µM [falling, single point]

Later entries:

| SMILES | Potency |
| --- | --- |
| CCn1c(C)nc2cc(C(=O)NNC(=S)NC(=O)c3ccc(OC)cc3)ccc21 | inconclusive: 11.6 µM [falling, partial curve, poor fit] |
| CC(C)COc1cccc(C(=O)NC(=S)NCc2cccnc2)c1 | inactive |
| CC(C(=O)Nc1ccc2nccnc2c1)N1C(=O)C2C3C=CC(C3)C2C1=O (stereo not given) | inconclusive: 20.6 µM [falling, single point] |
| Cc1oc(-c2ccc3c(c2)OCCO3)cc1C(=O)NC(Cc1ccccc1)C(=O)O (stereo not given) | inconclusive: 11.6 µM [activator, partial curve, poor fit] |
| Cc1sc2ncnc(N3CCC(C(=O)Nc4ccc(S(N)(=O)=O)cc4)CC3)c2c1C | inconclusive: 14.6 µM [falling, partial curve, poor fit] |
| N#CCOC(=O)C1CCN(S(=O)(=O)c2ccc3c(c2)OCCO3)CC1 | inactive |
| CC1CCC(C(C)C)C(OCC(O)CNC(C)c2ccccc2)C1 (stereo not given) | inconclusive: 23.1 µM [falling, partial curve, poor fit] |
| CCc1ccc2[nH]cc(S(=O)(=O)c3ccc(C)c(C)c3)c(=O)c2c1 | inconclusive: 23.1 µM [falling, single point] |
| CCOc1ccc(/C=N/NC(=O)Cc2csc(Nc3cccc(C(F)(F)F)c3)n2)c(OCC)c1 | inconclusive: 29.1 µM [falling, single point] |
| CCOC(=O)CC(=O)NC1(Cc2ccc(O)cc2)CCCCC1 | inactive |
| COCCCNC(=O)CC(NS(=O)(=O)c1ccc(Cl)cc1)c1ccc(OC)cc1 (stereo not given) | inconclusive: 0.206 µM [falling, partial curve] |
| CCOc1ccc(CNC(=O)c2c(C)nn(-c3ccc(F)cc3)c2-n2cccc2)cc1 | inconclusive: 32.6 µM [falling, partial curve, poor fit] |
| Cc1ccc(-c2csc(N3CCC[C@@H]3C(=O)NCCn3c(C(F)(F)F)nc4ccccc43)n2)cc1 | inconclusive: 29.1 µM [falling, single point] |
| COc1cccc(Cn2c(=O)sc3ccccc3c2=O)c1 | inactive |
| O=C(Nc1ccccn1)c1cccc(S(=O)(=O)N2CCc3ccccc3C2)c1 | inconclusive: 6.51 µM [activator, single point] |
| O=C(N/N=C/c1cc([N+](=O)[O-])ccc1Cl)c1ccc2nc[nH]c2c1 | inconclusive: 13 µM [falling, partial curve, poor fit] |
| O=C(NC1CCCCCC1)c1ccc([N+](=O)[O-])s1 | active: 2.06 µM |
| Cc1cccc(N(C(=O)c2snc(C(N)=O)c2N)C(C(=O)NCc2ccccc2)c2ccncc2)c1 (stereo not given) | active: 23.1 µM |
| COCC(C)N=C1NN=C(c2ccc(NC(C)=O)cc2)CS1 (stereo not given) | inconclusive: 8.2 µM [activator, partial curve] |
| Cc1nc2ccccc2c(=O)n1/N=C/c1ccccc1 | inconclusive: 18.4 µM [activator, single point] |
